These are yes or no findings as the source states them, for the method shown. Binding seen in cells or lysates may run through a third protein. Some entries that bind do so weakly or less than the wild type.
Molecular target: IκB kinase γ (IKKγ) (rat (endogenous in HBZY-1 GMCs)) (UniProt Q6TMG5)
Assay: co-IP; lysates of rat GMCs (5.6 mmol/L glucose, 30 mmol/L glucose or mannitol for 24 h; with or without PIASy siRNA) precipitated with anti-IKKγ antibody for 12 h at 4°C and protein A/G Sepharose; blot with anti-SUMO1 or anti-SUMO2/3 antibody; normal rabbit IgG as negative control

Sequences of proteins named here, by UniProt entry; tags and fusion partners are left off. Residues count along the entry.
UniProt Q6TMG5: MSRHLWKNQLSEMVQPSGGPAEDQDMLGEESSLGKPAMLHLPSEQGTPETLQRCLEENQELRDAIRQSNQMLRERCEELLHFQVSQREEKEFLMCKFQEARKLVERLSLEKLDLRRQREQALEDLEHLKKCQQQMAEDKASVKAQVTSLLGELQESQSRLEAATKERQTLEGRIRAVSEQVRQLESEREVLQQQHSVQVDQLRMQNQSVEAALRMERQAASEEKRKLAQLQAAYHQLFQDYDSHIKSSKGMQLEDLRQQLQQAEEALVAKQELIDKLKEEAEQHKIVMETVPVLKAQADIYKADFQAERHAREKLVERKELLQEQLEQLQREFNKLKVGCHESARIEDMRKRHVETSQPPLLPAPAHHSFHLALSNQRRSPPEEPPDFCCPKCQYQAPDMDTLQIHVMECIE
UniProt Q5I0H3, residues 1-97: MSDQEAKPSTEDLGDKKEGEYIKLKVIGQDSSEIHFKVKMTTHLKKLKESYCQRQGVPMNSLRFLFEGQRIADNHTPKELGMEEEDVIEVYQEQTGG

binding: binds
Substance: SUMO1 (from UniProt Q5I0H3 1-97)

— article PMC5605875
